Assay results published in PMC5064454.
Weaker means in comparison with the reference protein, sequence or condition of that experiment. For some assays here: For at least one entry, the source does not settle the construct or the ends of the probe.

Assays:
Test in all cases: EMSA
[1] = molecular target: p53-320 (C-terminal region, OD + basic domain) (Homo sapiens) (UniProt P04637); conditions: 50 mM KCl, EMSA: 5 mM Tris pH 7.6, 0.5 mM EDTA, 0.01% Triton X-100, 50 mM KCl, 0.5 mM DTT, on ice 20 min (30 min for plasmids), recombinant protein, residues 320-393, label: 5' 32P
[2] = molecular target: p53CD (GSTp53CD, central DBD) (Homo sapiens) (UniProt P04637); conditions: 50 mM KCl, EMSA: 5 mM Tris pH 7.6, 0.5 mM EDTA, 0.01% Triton X-100, 50 mM KCl, 0.5 mM DTT, on ice 20 min (30 min for plasmids), recombinant protein, residues 94-312, protein details: GST, label: 5' 32P
[3] = molecular target: wtp53 (full-length wild-type p53) (Homo sapiens) (UniProt P04637); conditions: 50 mM KCl, only residual binding; EMSA: 5 mM Tris pH 7.6, 0.5 mM EDTA, 0.01% Triton X-100, 50 mM KCl, 0.5 mM DTT, on ice 20 min (30 min for plasmids); recombinant protein; residues 1-393; label: 5' 32P
[4] = molecular target: p53T (GSTp53T) (Homo sapiens) (UniProt P04637); conditions: 50 mM KCl, EMSA: 5 mM Tris pH 7.6, 0.5 mM EDTA, 0.01% Triton X-100, 50 mM KCl, 0.5 mM DTT, on ice 20 min (30 min for plasmids), recombinant protein, residues 363-393, protein details: GST, label: 5' 32P
[5] = molecular target: p53CT (GSTp53CT) (Homo sapiens) (UniProt P04637); conditions: 50 mM KCl, only residual binding; EMSA: 5 mM Tris pH 7.6, 0.5 mM EDTA, 0.01% Triton X-100, 50 mM KCl, 0.5 mM DTT, on ice 20 min (30 min for plasmids); recombinant protein; residues 320-393; protein details: GST; label: 5' 32P
p53CΔ30 (Homo sapiens) = p53CΔ30 (Homo sapiens) (UniProt P04637); conditions: 50 mM KCl, EMSA: 5 mM Tris pH 7.6, 0.5 mM EDTA, 0.01% Triton X-100, 50 mM KCl, 0.5 mM DTT, on ice 20 min (30 min for plasmids), recombinant protein, residues 1-363, label: 5' 32P
[6] = lower than wtp53, folded or branched DNA

Does “GACGGTATCGATAAGAGACATGCCTAGACATGCCTCTTGATATCGAATTC (double strand) [P1-50]” bind ([1]; only minimal binding)?
Result: binds more weakly

Does “GAGACATGCCTAGACATGCCTC (double strand) [P1-22]” bind ([1]; only minimal binding)?
Result: binds more weakly

Does “GTAAGAGACATGCCTAGACATGCCTCATCG (double strand) [P1-30]” bind ([1]; only minimal binding)?
Result: binds more weakly

Does “TGGGGAGGGTGGGGAGGGTGGGGAAGGTGGGGA [Pu33]” bind [2, 6]?
Result: binds more weakly

Does “TGGGGAGGGTGGGGAGGGTGGGGAAGGTGGGGA [Pu33]” bind [1, 6]?
Result: binds more weakly

Does “TTGGGGCGCTTATGGGGAGGGTGGGGAGGGTGGGGAAGGTGGGGAGGAGACT (double strand) [dsPu52/Py52]” bind [3]?
Result: binds more weakly

Does “TTGGGGCGCTTATGGGGAGGGTGGGGAGGGTGGGGAAGGTGGGGAGGAGACT (double strand) [dsPu52/Py52]” bind ([4]; only residual binding)?
Result: binds more weakly

Does “TTGGGGCGCTTATGGGGAGGGTGGGGAGGGTGGGGAAGGTGGGGAGGAGACT (double strand) [dsPu52/Py52]” bind [5]?
Result: binds more weakly

Does “TTGGGGCGCTTATGGGGAGGGTGGGGAGGGTGGGGAAGGTGGGGAGGAGACT (double strand) [dsPu52/Py52]” bind (p53CΔ30 (Homo sapiens); only residual binding)?
Result: binds more weakly

Does “TTGGGGCGCTTATGGGGAGGGTGGGGAGGGTGGGGAAGGTGGGGAGGAGACT (double strand) [dsPu52/Py52]” bind ([2]; only residual binding)?
Result: binds more weakly

Does “TTGGGGCGCTTATGGGGAGGGTGGGGAGGGTGGGGAAGGTGGGGAGGAGACT [Pu52]” bind ([4]; lesser extent than wtp53 and p53CT, folded or branched DNA)?
Result: binds more weakly

Does “TTGGGGCGCTTATGGGGAGGGTGGGGAGGGTGGGGAAGGTGGGGAGGAGACT [Pu52]” bind (p53CΔ30 (Homo sapiens); only minimal binding, folded or branched DNA)?
Result: binds more weakly

Does “TTGGGGCGCTTATGGGGAGGGTGGGGAGGGTGGGGAAGGTGGGGAGGAGACT [Pu52]” bind ([2]; minimal binding, folded or branched DNA)?
Result: binds more weakly

Does “TTGGGGCGCTTATGGGGAGGGTGGGGAGGGTGGGGAAGGTGGGGAGGAGACT [Pu52]” bind [1, 6]?
Result: binds more weakly
